Assay results from the supplement of paper PMC10849652.
The list shows a part of the results.

Protein sequences, listed by entry. Tags and fused reporters are not part of them. Lines headed by an entry give the natural chain unless they say otherwise; changes in a name come on top.
UniProt O95684: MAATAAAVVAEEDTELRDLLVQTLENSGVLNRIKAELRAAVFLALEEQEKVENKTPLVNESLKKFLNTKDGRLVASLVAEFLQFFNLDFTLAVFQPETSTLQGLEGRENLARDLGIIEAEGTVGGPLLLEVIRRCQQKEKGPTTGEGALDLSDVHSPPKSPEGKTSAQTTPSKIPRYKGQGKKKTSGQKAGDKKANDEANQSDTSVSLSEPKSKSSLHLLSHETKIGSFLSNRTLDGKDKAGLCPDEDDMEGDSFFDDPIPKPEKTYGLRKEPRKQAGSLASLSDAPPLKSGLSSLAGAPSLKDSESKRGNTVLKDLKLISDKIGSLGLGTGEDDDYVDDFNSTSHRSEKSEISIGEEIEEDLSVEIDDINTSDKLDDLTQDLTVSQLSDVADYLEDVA
UniProt Q8N0W3: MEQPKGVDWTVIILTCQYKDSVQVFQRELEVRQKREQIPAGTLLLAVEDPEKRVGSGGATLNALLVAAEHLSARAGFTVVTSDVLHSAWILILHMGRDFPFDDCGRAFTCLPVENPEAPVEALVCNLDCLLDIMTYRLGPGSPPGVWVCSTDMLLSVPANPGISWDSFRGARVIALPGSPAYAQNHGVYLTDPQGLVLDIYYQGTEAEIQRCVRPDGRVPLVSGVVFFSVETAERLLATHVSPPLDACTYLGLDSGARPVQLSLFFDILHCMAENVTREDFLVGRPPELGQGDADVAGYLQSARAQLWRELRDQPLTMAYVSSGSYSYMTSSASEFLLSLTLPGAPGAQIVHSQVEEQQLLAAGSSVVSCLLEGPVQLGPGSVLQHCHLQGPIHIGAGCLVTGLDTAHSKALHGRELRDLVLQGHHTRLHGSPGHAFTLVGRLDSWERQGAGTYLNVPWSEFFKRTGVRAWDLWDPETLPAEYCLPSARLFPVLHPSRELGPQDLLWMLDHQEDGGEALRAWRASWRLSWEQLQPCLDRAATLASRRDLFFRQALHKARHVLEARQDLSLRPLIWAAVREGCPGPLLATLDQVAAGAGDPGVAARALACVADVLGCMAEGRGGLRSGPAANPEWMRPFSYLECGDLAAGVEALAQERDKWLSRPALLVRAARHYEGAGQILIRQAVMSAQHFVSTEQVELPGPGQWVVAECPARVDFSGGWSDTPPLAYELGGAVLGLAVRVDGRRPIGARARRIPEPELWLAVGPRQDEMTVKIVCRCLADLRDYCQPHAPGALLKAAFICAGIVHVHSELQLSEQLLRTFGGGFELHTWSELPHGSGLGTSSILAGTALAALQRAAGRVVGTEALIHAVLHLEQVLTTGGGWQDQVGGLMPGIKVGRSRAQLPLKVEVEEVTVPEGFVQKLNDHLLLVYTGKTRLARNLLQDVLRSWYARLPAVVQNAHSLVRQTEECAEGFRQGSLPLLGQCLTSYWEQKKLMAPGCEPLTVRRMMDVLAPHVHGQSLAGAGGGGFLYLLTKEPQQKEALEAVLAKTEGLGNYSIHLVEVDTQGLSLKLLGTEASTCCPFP
UniProt Q9UK73, whole entry, looked up: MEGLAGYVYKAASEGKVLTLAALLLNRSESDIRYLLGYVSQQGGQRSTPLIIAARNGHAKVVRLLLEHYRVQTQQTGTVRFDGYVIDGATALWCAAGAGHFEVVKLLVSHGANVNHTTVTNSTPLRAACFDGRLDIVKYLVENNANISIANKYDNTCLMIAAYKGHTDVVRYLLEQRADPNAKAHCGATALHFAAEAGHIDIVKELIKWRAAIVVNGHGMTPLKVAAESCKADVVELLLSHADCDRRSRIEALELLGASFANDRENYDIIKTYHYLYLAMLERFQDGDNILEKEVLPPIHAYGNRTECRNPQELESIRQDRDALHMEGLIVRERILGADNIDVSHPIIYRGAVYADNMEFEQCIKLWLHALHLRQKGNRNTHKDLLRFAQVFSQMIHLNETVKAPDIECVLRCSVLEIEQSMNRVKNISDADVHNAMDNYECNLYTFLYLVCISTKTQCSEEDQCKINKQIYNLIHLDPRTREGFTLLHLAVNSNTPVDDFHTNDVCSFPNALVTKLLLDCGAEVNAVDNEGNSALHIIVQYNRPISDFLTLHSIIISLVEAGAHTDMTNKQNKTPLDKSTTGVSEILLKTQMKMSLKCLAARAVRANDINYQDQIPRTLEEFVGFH
UniProt Q96CP2: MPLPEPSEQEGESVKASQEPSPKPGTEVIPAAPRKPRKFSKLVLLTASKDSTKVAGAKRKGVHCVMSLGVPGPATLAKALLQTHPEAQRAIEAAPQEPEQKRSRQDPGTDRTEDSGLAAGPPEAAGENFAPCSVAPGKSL
UniProt Q13045: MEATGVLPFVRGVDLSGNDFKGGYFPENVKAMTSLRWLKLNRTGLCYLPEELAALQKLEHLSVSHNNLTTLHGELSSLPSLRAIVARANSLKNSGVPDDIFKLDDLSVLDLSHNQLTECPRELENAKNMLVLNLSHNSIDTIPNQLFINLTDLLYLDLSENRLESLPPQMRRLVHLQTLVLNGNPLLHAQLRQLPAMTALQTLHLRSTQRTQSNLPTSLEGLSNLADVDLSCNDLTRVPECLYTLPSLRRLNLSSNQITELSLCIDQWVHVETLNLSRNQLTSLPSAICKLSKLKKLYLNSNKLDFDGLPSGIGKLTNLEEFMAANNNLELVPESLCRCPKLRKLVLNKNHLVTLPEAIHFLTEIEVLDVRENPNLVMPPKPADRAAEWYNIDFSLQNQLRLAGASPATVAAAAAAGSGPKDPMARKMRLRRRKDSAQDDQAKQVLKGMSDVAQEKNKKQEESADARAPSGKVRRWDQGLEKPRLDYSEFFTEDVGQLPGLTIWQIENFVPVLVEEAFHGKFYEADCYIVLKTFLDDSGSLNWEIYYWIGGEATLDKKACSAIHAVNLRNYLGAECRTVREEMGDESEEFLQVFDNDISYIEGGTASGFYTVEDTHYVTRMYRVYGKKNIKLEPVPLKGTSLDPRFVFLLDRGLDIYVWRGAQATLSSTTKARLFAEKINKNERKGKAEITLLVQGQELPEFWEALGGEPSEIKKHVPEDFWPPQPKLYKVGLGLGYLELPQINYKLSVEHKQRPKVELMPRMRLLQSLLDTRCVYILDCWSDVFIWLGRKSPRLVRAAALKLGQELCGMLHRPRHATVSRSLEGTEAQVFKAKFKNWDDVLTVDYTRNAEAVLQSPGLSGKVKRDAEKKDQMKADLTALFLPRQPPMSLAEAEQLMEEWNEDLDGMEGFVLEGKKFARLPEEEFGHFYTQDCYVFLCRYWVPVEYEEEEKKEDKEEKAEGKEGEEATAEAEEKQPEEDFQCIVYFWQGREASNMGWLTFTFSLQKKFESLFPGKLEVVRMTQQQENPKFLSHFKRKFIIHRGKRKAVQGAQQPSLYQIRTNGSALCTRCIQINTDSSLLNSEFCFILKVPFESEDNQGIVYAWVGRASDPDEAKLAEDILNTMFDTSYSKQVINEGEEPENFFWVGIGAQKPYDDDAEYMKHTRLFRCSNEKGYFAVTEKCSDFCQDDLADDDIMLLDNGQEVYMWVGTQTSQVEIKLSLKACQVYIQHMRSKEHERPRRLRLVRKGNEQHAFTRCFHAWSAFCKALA
UniProt P26885: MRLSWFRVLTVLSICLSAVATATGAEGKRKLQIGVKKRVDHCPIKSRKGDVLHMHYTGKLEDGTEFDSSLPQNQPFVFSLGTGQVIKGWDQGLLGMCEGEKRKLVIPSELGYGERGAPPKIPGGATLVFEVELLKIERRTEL
UniProt Q96ND0: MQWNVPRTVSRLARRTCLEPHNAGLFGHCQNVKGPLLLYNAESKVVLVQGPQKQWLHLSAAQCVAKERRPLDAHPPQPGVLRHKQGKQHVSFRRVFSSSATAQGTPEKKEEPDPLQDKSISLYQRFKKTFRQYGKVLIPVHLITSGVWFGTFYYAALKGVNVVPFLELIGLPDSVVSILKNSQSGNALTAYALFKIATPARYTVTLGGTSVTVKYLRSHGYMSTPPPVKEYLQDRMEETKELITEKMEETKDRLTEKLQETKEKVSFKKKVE
UniProt Q9NSD9: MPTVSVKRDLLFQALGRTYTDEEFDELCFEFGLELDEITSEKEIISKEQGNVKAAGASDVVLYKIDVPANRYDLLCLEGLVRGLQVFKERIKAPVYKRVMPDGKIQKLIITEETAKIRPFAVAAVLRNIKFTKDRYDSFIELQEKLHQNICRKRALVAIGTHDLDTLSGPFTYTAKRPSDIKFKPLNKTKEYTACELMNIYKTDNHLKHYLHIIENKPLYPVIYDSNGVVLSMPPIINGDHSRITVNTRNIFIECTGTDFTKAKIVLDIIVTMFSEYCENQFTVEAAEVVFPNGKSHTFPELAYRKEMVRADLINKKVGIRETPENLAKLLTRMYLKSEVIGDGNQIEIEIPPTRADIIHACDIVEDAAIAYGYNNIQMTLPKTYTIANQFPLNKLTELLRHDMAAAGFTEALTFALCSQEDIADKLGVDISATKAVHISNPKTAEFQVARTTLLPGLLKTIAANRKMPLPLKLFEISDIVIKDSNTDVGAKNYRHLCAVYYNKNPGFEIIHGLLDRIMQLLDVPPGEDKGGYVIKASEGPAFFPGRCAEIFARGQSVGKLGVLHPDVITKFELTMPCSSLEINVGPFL
UniProt Q5JUQ0: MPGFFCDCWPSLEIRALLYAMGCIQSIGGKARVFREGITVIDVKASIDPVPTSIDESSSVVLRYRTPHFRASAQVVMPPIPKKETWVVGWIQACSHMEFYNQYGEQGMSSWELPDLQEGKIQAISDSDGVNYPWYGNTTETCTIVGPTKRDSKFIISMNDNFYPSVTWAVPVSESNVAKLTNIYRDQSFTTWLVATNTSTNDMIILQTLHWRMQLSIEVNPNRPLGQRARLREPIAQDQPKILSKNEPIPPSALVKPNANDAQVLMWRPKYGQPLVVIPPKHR
UniProt O95302: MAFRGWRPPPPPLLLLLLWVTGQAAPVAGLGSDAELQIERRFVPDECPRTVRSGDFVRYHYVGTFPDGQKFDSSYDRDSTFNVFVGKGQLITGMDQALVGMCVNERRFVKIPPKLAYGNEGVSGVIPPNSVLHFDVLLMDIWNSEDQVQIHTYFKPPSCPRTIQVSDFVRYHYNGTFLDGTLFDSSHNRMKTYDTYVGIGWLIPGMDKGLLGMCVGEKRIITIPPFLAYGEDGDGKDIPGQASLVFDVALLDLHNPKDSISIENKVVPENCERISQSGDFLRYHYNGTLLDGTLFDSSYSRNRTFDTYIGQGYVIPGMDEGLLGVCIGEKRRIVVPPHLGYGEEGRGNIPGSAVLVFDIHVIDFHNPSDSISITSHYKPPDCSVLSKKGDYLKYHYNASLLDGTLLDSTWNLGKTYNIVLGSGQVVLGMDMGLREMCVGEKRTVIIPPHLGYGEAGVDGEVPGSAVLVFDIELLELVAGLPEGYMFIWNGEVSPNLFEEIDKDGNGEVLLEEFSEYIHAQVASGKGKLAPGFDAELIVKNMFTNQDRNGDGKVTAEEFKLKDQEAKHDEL
UniProt Q5T1M5: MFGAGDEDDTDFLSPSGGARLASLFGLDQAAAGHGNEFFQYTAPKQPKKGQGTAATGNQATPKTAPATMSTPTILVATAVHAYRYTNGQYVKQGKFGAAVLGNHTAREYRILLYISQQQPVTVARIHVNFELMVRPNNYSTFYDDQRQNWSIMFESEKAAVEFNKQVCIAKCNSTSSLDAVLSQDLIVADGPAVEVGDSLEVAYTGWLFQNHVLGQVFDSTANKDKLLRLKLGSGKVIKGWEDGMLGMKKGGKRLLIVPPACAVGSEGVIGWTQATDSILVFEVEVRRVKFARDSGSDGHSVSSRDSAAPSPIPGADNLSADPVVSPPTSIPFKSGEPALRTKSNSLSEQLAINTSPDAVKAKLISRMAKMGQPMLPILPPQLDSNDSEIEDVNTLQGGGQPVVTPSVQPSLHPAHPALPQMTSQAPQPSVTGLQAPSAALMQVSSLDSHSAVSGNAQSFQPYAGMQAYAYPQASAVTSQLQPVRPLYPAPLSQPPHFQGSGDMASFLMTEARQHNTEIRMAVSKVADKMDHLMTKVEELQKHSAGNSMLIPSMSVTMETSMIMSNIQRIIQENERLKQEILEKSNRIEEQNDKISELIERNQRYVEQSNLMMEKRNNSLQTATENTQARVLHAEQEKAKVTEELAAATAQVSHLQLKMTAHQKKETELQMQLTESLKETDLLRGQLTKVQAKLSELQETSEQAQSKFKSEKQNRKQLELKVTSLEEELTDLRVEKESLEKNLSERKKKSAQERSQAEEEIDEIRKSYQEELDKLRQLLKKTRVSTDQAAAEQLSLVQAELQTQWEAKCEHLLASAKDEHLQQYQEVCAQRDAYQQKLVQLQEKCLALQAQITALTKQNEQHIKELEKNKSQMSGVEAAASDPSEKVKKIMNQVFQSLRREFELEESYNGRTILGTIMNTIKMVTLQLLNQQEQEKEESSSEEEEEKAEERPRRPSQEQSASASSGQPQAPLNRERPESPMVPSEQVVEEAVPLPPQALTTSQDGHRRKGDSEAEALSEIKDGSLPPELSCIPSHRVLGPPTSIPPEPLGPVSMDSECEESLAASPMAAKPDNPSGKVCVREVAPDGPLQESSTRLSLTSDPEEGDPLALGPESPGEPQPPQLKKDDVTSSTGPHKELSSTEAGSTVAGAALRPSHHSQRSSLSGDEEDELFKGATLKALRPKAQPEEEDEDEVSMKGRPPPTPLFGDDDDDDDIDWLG

These targets were tested with Cc1ncc(-c2ccnc(Nc3ccc(S(C)(=O)=O)cc3)n2)n1C(C)C (assay: log2 fold change, soluble protein after heating vs DMSO (PISA); higher = thermal stabilisation; K562 cells, 10 uM, 30 min; active = over 0.2 and 3.5 SD of the protein, either way, in both replicates (recomputed)).
Summary of the method: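 K562 cells at 2×10^6 cells/mL were treated with 10 μM compound for 30 min. Aliquots were heated for 3 min across 48°C-58°C, pooled, and extracted in PBS with 0.5% NP-40 at 4°C; soluble protein was the supernatant after 21,000xg for 90 min. Soluble protein was quantified by TMTpro 16plex LC-MS/MS with channel sums equalised, and reported as log2 fold change in thermal stability against DMSO controls, with values from duplicates.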

log2 fold change, inactive:
FBXO22 (UniProt Q8NEZ5) 0.024
FNBP4 isoform 2 (UniProt Q8N3X1) -0.043
FGFR1OP (UniProt O95684) -0.013
FCSK isoform 2 (UniProt Q8N0W3) -0.013
FAM76B (UniProt Q5HYJ3) -0.02
FLVCR1 (UniProt Q9Y5Y0) -0.001
FAM98A (UniProt Q8NCA5) -0.049
FERMT2 isoform 3 (UniProt Q96AC1) -0.069
FN3K (UniProt Q9H479) -0.009
FEM1B (UniProt Q9UK73) -0.028
FN1 isoform 1 (UniProt P02751) 0.189
FN3KRP (UniProt Q9HA64) -0.012
FIP1L1 (UniProt Q6UN15) -0.021
FLYWCH2 (UniProt Q96CP2) 0.005
FDX1 (UniProt P10109) -0.055
FLOT2 (UniProt Q14254) -0.002
FAM98B (UniProt Q52LJ0) 0.052
FLOT1 (UniProt O75955) 0.009
FBXO5 (UniProt Q9UKT4) -0.003
FLT4 (UniProt P35916) -0.044
FLAD1 (UniProt Q8NFF5) 0.1
FLII (UniProt Q13045) 0.046
FLNB isoform 8 (UniProt O75369) 0.001
FLNC (UniProt Q14315) 0.012
FCGR2C (UniProt P31995) -0.037
FKBP5 (UniProt Q13451) 0.072
FKBP2 (UniProt P26885) -0.026
FHL2 (UniProt Q14192) -0.009
FAM210A (UniProt Q96ND0) -0.042
FAM32A (UniProt Q9Y421) 0.176
FARSB (UniProt Q9NSD9) 0.026
FAM78A (UniProt Q5JUQ0) 0.007
FKBP9 (UniProt O95302) -0.055
FAR1 (UniProt Q8WVX9) 0.004
FBXO30 (UniProt Q8TB52) 0.034
FKBP15 (UniProt Q5T1M5) -0.064
FBLN1 (UniProt P23142) 0.196

Retrieved one by one from above (2):
log2 fold change, inactive:
FNBP4 isoform 2 (UniProt Q8N3X1) -0.043
FKBP5 (UniProt Q13451) 0.072
